Test: general procedure: Fmoc solid-phase peptide synthesis; 2-chlorotrityl chloride (2-CTC) resin; Wang resin for microwave-assisted synthesis; HATU/DIPEA
Conditions: whole synthesis

HELM PEPTIDE1{S.[meT].H.F.P.[meI].C.[meI].F}$$$$V2.0 (N-terminus assumed; SMILES CC[C@H](C)[C@@H](C(=O)N[C@@H](Cc1ccccc1)C(=O)O)N(C)C(=O)[C@H](CS)NC(=O)[C@H]([C@@H](C)CC)N(C)C(=O)[C@@H]1CCCN1C(=O)[C@H](Cc1ccccc1)NC(=O)[C@H](Cc1c[nH]cn1)NC(=O)[C@H]([C@@H](C)O)N(C)C(=O)[C@@H](N)CO)
difficulty met: considering the challenges faced in the synthesis of the tri-N-methylated derivative
